This test concerns the target IGF2BP2 (human (endogenous in ASC hTERT adipocytes)) (UniProt Q9Y6M1). Description: co-IP; immunoprecipitation of endogenous IGF2BP2 from ASC hTERT adipocytes, western blot probed for HuR.

Amino acid sequences for entries named in this document (tags omitted).
UniProt Q9Y6M1: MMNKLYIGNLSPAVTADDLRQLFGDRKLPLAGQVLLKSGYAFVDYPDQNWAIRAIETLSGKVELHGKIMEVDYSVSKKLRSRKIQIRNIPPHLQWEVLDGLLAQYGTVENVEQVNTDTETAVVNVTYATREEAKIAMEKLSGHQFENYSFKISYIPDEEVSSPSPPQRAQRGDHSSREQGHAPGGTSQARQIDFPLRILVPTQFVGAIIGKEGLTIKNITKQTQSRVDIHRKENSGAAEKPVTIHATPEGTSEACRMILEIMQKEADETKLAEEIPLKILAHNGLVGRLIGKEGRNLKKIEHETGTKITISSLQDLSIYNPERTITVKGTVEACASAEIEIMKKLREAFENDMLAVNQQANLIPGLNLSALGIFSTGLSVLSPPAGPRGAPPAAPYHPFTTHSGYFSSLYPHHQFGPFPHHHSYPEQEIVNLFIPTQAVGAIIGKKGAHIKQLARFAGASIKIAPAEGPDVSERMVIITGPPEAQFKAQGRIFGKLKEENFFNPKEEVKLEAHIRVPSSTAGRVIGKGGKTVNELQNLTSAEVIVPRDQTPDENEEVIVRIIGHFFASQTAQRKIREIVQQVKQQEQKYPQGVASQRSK
UniProt Q15717: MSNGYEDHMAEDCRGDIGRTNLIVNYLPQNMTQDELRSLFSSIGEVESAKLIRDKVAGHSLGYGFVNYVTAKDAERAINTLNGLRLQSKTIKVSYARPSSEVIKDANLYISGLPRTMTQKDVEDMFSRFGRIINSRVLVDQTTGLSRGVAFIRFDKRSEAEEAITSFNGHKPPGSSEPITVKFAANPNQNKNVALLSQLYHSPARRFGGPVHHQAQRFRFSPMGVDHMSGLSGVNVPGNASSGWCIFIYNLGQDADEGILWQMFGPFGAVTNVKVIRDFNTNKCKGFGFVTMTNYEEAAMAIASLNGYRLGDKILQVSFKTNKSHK

Data on 1 substance can be found in paper PMC11334222.

These are yes or no findings as the source states them, for the method shown. In cells and extracts the contact can be indirect. Some binding calls cover weakened binding; strength is not graded here.

HuR (from UniProt Q15717 1-326): the binding entry is “binds”.
